In article PMC8659110, “Preliminary Study of New Gallium-68 Radiolabeled Peptide Targeting NRP-1 to Detect Brain Metastases by Positron Emission Tomography” (Molecules, 2021):
Results are given in words; binding and its absence hold for the method and conditions named. Some results given as binding are weak or reduced against the parent protein; the word gives no strength.

Biological target: T1, NRP-1 recombinant chimeric protein (not stated (recombinant human/rat NRP-1 proteins bought)) (UniProt O14786)
T1 sequence: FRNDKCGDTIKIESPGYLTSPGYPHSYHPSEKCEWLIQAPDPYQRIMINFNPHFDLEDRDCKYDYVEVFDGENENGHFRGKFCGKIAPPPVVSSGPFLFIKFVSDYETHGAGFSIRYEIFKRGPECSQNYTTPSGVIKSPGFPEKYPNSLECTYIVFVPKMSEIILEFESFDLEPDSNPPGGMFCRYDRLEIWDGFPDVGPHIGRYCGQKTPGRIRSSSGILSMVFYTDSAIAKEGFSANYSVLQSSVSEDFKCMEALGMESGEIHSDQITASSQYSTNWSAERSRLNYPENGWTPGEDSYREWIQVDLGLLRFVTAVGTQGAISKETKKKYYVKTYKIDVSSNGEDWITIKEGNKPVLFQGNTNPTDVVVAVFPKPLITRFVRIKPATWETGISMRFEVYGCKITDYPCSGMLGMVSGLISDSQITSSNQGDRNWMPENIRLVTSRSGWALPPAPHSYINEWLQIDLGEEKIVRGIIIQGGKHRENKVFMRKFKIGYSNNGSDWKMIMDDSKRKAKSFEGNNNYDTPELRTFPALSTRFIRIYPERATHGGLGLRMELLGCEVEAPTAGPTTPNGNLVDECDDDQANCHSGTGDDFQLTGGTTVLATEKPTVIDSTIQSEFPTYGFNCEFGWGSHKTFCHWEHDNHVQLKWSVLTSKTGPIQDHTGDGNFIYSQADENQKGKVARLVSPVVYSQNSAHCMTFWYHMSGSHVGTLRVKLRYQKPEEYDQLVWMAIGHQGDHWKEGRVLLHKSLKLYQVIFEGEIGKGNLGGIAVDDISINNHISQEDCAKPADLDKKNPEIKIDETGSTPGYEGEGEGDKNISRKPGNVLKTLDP
Test: ELISA; competitive binding assay: NRP-1 recombinant chimeric protein coated on Maxisorp microplates; biotinylated VEGF-165 with heparin, with or without increasing concentrations of compounds; 2 h at room temperature; bound b-VEGF-165 detected with streptavidin-HRP, OD 450 nm; IC50 by one-site fit log-IC50; both purified

- binding: binds
Binder: KDKPPR [KDKPPR peptide]
